## Primary screen of a compound library

Protein sequences, listed by entry. Tags and fused reporters are not part of them. Residues count along the entry.
UniProt Q8IDJ8, 1-583: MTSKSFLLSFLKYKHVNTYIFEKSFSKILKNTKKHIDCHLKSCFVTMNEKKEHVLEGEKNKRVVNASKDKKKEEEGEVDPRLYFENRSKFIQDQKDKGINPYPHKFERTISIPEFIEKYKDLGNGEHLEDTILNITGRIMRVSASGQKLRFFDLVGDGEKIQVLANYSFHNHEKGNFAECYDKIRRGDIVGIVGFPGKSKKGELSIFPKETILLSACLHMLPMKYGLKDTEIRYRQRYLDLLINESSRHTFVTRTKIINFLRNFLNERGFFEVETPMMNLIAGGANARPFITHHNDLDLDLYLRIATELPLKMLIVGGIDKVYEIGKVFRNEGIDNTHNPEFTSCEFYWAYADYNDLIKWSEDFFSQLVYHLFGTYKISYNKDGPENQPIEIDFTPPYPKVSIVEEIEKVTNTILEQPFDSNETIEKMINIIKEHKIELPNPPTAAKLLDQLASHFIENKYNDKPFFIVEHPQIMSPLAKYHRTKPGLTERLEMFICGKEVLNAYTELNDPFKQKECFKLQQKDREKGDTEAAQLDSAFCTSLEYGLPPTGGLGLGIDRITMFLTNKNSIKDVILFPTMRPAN

From ChEMBL document CHEMBL3988442, “University of Dundee, Small-Polar-MMV Screening Library” (2021).

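Enzyme assay of the cytosolic lysyl-tRNA synthetase in 384-well plates, read by luminescence. Target: Lysine-tRNA ligase, Plasmodium falciparum 3D7 (UniProt Q8IDJ8). Tested at 30 µM. Direction is inferred from only a few compounds that gave an IC50; most scored high, so higher reads as stronger inhibition. Size under these conditions: about 69,000 compounds, about 49 of them at 50% or above in at least one test.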

Each number is a percent effect as filed. The record does not define 0% and 100%; most values in the screen are far below 50% and negative numbers occur (in some assays of this library far below -100). Compounds were drawn at random from those tested, without regard to their results.

structure | percent effect
CN(C)C(=O)c1cccn1-c1ccc2c(c1)OCCO2 | 1.145
OC(CN(Cc1ccccc1)Cc1ccccn1)c1cccs1 (configuration not stated) | -0.674
COc1cc(NC(=O)NCc2ccccn2)cc(OC)c1 | 0.3252
CCn1c(-c2ccccc2)nn(CC(=O)NCCc2ccc(C)s2)c1=O | -2.082
FC(F)(F)Cn1ccnc1CN1CCCC1c1noc(C2CC2)n1 (configuration not stated) | 8.314
Cc1noc(C)c1C(=O)N1CCC2(CC1)c1nc[nH]c1CCN2C | 1.012
CCCc1nnc(C(=O)N(C)Cc2cnc3ccccn23)o1 | -0.9145
CS(=O)(=O)N1C[C@H]2CC[C@@H]1CN(Cc1ccncc1)C2 | 11.64
O=C(NCc1nnc2n1CCCC2)N(Cc1ccccc1F)C1CC1 | 1.781
CCc1ccsc1C(=O)NC(C#N)CC (configuration not stated) | 7.943
CN1CCC/C1=N\S(=O)(=O)c1ccc(NC(=O)c2ccc(F)cc2)cc1 | 6.999
COC[C@@H]1CC[C@H]2[C@H](CCN2S(=O)(=O)c2ccc(F)cc2)O1 | 7.243
Cc1cc2nccc(C3CCCN(C(=O)c4cnccn4)C3)n2n1 (configuration not stated) | -1.516
COCC1CC2(CCN(c3cc(OC)ncn3)CC2)CN1C(C)C (configuration not stated) | 3.764
O=C(NC1CCCCC1)c1cc(Br)cnc1N1CCCCC1 | 3.392
CC(C)N1CCC(CC(=O)N2CCC(C(O)c3nccn3C)CC2)CC1 (configuration not stated) | -1.001
CCc1nc(C(=O)N2CCN(C)CC2C)nn1-c1ccccc1Cl (configuration not stated) | -2.777
Cc1nc(N2CCOCC2)nc(C)c1NS(=O)(=O)c1ccccc1 | 1.913
Cc1cnn(CCC(=O)N2CCC(Nc3cccnn3)CC2)c1 | -3.131
CCC1CN(C)c2ccccc2CN1C(=O)c1c[nH]c(=O)cc1C (configuration not stated) | -1.794
c1coc(CN2CCC3(CC2)CC(N2CCCC2)CO3)c1 (configuration not stated) | -7.044
CC(c1ccccn1)N(C)Cc1ccc(-n2cncn2)cc1 (configuration not stated) | 1.211
CCn1cnnc1CNC(=O)NCC(O)c1ccc(OC)cc1 (configuration not stated) | 2.038
Cc1c[nH]nc1C1CCCCN1C(=O)Cn1cc(Cl)cn1 (configuration not stated) | 2.785
Cc1nc(Nc2ncccn2)cc(C2CCN(CC(C)C)C2)n1 (configuration not stated) | 1.103
CN(C)C(=O)c1ccc(C2CCCN2C(=O)c2cccc3c2OCC3)s1 (configuration not stated) | 5.651
Cc1ccc(C2=CCN(C(=O)C3CCN(C)C(=O)C3)CC2)cc1 (configuration not stated) | 0.7766
COCC1CN(Cc2cccnc2OC)Cc2cnn(C)c21 (configuration not stated) | -2.771
COc1ccc([C@@H]2CN(Cc3cccnc3N)C[C@H]2NC(C)=O)cc1 | 0.02329
CN1CCCCC1c1ncc2c(n1)CCN(CCCc1ccccc1)C2 (configuration not stated) | 0.02282
CC(C#N)CSc1ccccc1NCC(=O)NCc1cccs1 (configuration not stated) | -1.305
O=C(NCC1CCOCC1)[C@H]1C[C@@H]2CCN(Cc3ccccc3)C[C@H]2O1 | 1.934
Cc1nc(C2CCCN(C(=O)Cn3ccccc3=O)C2)no1 (configuration not stated) | 0.08489
CCN(Cc1cccc(F)c1)S(=O)(=O)N1CCOCC1 | -1.988
O=C1CCCN1CCc1noc(-c2ccsc2)n1 | 0.08335
O=C(c1cnc(-c2ncccn2)s1)N1CCCC1Cn1cccn1 (configuration not stated) | -1.694
COCCN1CCN(CC(=O)N(C)Cc2ccc(F)cc2)CC1C (configuration not stated) | 4.327
CCc1nc(CN(C)C2CCN(CCc3ccncc3)C2)no1 (configuration not stated) | 0.7733
CC(C)c1nnc(CNCC2CCCN2c2cccnn2)o1 (configuration not stated) | 6.262
Cc1cnn(CCNCC(=O)Nc2ccc(Br)cn2)c1 | -5.43
CCC(C(=O)N(C)Cc1cc(C2CC2)[nH]n1)n1cccn1 (configuration not stated) | 1.526
Cc1ccc(S(=O)(=O)NC2CC2)cc1C | 4.843
CC(C)c1noc(CCC(=O)NCC2CCS(=O)(=O)C2)n1 (configuration not stated) | 4.414
NC(=O)c1ccc(S(=O)(=O)NC2CCN(Cc3ccccc3)C2=O)cc1 (configuration not stated) | 7.786
CN(C)Cc1nnc(C2CCN(C(=O)CCc3cccs3)CC2)n1C | -1.873
CS(=O)(=O)NCC1CCCN(C(=O)c2ccc(Cl)o2)C1 (configuration not stated) | 5.385
CCc1n[nH]c(C2CN(C(=O)c3cncnc3CC)CCO2)n1 (configuration not stated) | 4.501
CN(CCCc1nccn1C)C(=O)C1COc2ccccc2C1 (configuration not stated) | -0.02237
O=C1CC2(CCCC2)CN1CCOc1ccc(F)cc1 | 5.236
O=C(NC1CC1)c1cc(Sc2ncccn2)ccn1 | 1.868
O=C(NCCc1cccc(O)c1)NC1CCN(c2ccccc2)C1=O (configuration not stated) | -3.871
NCC1Cc2cccc(-c3nccc(N4CCC(O)CC4)n3)c2O1 (configuration not stated) | -1.81
COCCN1CCC2(CC1)CN(C(=O)c1ccco1)CCO2 | 1.311
Cc1ccc([C@@H]2CN(S(=O)(=O)Cc3ccccc3)C[C@H]2N(C)C)cc1 | -0.6785
NC(=O)C1CCCN(c2ncnc3c2Cc2ccccc2OC3)C1 (configuration not stated) | 4.908
CC(C)Cc1cc(C(=O)N2CCC(C(=O)N3CCOCC3)CC2)on1 | 4.044
O=C(c1ccnc(C2CCNCC2)c1)N1CCCC(CO)C1 (configuration not stated) | 1.142
Cc1cc(C(F)(F)F)nn1CC(C)C(=O)NC(C)C (configuration not stated) | 0.579
COCCCSc1ccc(NCc2cscn2)cc1 | 6.342
CCC(C)N1CCc2c(C(=O)N(C)Cc3ccccn3)nn(C)c2C1 (configuration not stated) | 1.087
O=C(Cc1cccc(O)c1)NC1CCN(c2cccc(Cl)c2)C1 (configuration not stated) | 0.2376
Cc1cn[nH]c1C1COCCN1C(=O)c1cc(F)ccc1F (configuration not stated) | -3.276
CC(C#N)CNC(=O)Nc1ccc(Br)cc1 (configuration not stated) | 2.536
CCc1cc(=O)[nH]c2nnc(SCC(=O)OC)n12 | 3.721
Cc1ccoc1C(=O)N1CCn2cc(CN3CCCC3)nc2C1 | -3.112
Cc1cc(N(C)C)nc(N2CCn3c(C)nnc3C2)n1 | 2.604
CCc1nc(C2CCCN2C(=O)CCc2ccc3c(c2)OCO3)no1 (configuration not stated) | -4.833
CNC(=O)[C@H]1C[C@@H]2CN(S(=O)(=O)c3ccccc3)C[C@@H]2N1C(C)=O | 3.524
CC(C)Cc1nc(CN2CCc3onc(-c4cccc(F)c4)c3C2)no1 | -3.376
Cc1nc(CN2CCCC3(CCN(c4cccnc4)C3=O)C2)cs1 (configuration not stated) | 0.1608
COc1c(Cl)cc(C(=O)NCCNc2ncccn2)cc1Cl | 1.421
CN(C1CCN(c2ccccn2)CC1)S(=O)(=O)c1cccc(F)c1 | 8.77
COCC1CN(Cc2csc(C)n2)Cc2nccn2C1 (configuration not stated) | 4.012
COc1ccccc1NC(=O)NCCCC(=O)Nc1cn[nH]c1 | 2.397
CCN1CCN(c2nc(O)cc(Cc3ccccc3F)n2)CC1 | 2.09
O=C1COc2cccc(OCc3ccccn3)c2N1 | 7.124

The first 6 entries again:

{"structure": "CN(C)C(=O)c1cccn1-c1ccc2c(c1)OCCO2", "percent effect": 1.145}
{"structure": "OC(CN(Cc1ccccc1)Cc1ccccn1)c1cccs1", "stereo": "configuration not stated", "percent effect": -0.674}
{"structure": "COc1cc(NC(=O)NCc2ccccn2)cc(OC)c1", "percent effect": 0.3252}
{"structure": "CCn1c(-c2ccccc2)nn(CC(=O)NCCc2ccc(C)s2)c1=O", "percent effect": -2.082}
{"structure": "FC(F)(F)Cn1ccnc1CN1CCCC1c1noc(C2CC2)n1", "stereo": "configuration not stated", "percent effect": 8.314}
{"structure": "Cc1noc(C)c1C(=O)N1CCC2(CC1)c1nc[nH]c1CCN2C", "percent effect": 1.012}